# The list is a part of this screen's results and no random one: it gathers tests that were run many times, whatever their T/C, doses with no T/C, and many T/C values between a quarter and a half above the control. Further doses and runs are listed elsewhere. T/C gives the treated animals as a percentage of the vehicle group. Some entries give survivors of the animals treated and no T/C: the source files T/C as zero there, which appears to mark a toxic dose or a test without result, not a measured value. Some doses without a T/C left all or most animals alive at the check, yet need not have been tolerated: survival well below the control is almost never listed, so the zero probably covers shortened survival too. Survivors were counted at the toxicity check, usually on the fifth day, unless a day is given; later deaths do not show. Schedule codes are those of the source, read here as Q, the interval in days (D) or hours (H), X, the number of doses. Some schedule codes hold Z or #, which are not explained here. Where survival is the endpoint, this PubChem deposit counts one and a half times the control or more as active, and values a quarter to a half above the control carry no call in these data; other NCI protocols may use other cut-offs.
# System: L1210 leukemia ip in BDF1 mice, survival T/C
# Assay: NCI In Vivo Anticancer Drug Screen. Data for tumor model L1210 Leukemia (intraperitoneal) in B6D2F1 (BDF1) mice
# Conditions: T/C endpoint: mean survival time, higher T/C = longer survival
# [1] = dose: 200.0 mg/kg/injection, schedule: Q04DX003 (ip), vehicle: saline with Tween-80
# [2] = dose: 400.0 mg/kg/injection, schedule: Q04DX003 (ip), vehicle: saline with Tween-80
# [3] = dose: 400.0 mg/kg/injection, schedule: Q04DX002 (ip), vehicle: saline
# [4] = dose: 400.0 mg/kg/injection, schedule: Q04DX003 (ip), vehicle: saline
# [5] = dose: 100.0 mg/kg/injection, schedule: Q01DX009 (ip), vehicle: saline
# [6] = dose: 200.0 mg/kg/injection, schedule: Q04DX003 (ip), vehicle: saline
# [7] = dose: 100.0 mg/kg/injection, schedule: Q01DX009 (ip), vehicle: Klucel (hydroxypropylcellulose) (HPC)
# [8] = dose: 200.0 mg/kg/injection, schedule: Q01DX009 (ip), vehicle: Klucel (hydroxypropylcellulose) (HPC)
# [9] = dose: 400.0 mg/kg/injection, schedule: Q04DX003 (ip), vehicle: Klucel (hydroxypropylcellulose) (HPC)
# [10] = dose: 100.0 mg/kg/injection, schedule: Q01DX009 (ip), vehicle: saline with Tween-80
# [11] = dose: 100.0 mg/kg/injection, schedule: Q04DX003 (ip), vehicle: saline with Tween-80
# [12] = dose: 200.0 mg/kg/injection, schedule: Q01DX009 (ip), vehicle: saline with Tween-80
# [13] = dose: 200.0 mg/kg/injection, schedule: Q04DX002 (ip), vehicle: Klucel (hydroxypropylcellulose) (HPC)
# [14] = dose: 400.0 mg/kg/injection, schedule: Q04DX002 (ip), vehicle: Klucel (hydroxypropylcellulose) (HPC)
# [15] = dose: 200.0 mg/kg/injection, schedule: Q04DX003 (ip), vehicle: Klucel (hydroxypropylcellulose) (HPC)
# [16] = dose: 300.0 mg/kg/injection, schedule: Q01DX001 (ip), vehicle: saline
# [17] = dose: 200.0 mg/kg/injection, schedule: Q01DX009 (ip), vehicle: saline
compound,measurement,setting,value
Nc1ccccc1C(=O)O,T/C,"dose: 400.0 mg/kg/injection, schedule: Q01DX001 (ip), vehicle: carboxymethylcellulose (CMC)",143 % of control
CCCNc1ncc(C(=O)O)c(=O)[nH]1,survivor count,[1],3 of 6
same,survivor count,[2],3 of 6
CCN(C)CCC(C=O)(c1cccc2ccccc12)C(C)C (stereo not given),survivor count,"dose: 200.0 mg/kg/injection, schedule: Q04DX002 (ip), vehicle: saline",2 of 3
same,survivor count,[3],0 of 3
CC1CCCC(C[N+](C)(C)C)C1=O (stereo not given),survivor count,[4],3 of 6
CN=C(c1ccc(NC(=O)c2ccc(C(=O)Nc3ccc(C(=NC)N(C)C(C)=O)cc3)cc2)cc1)N(C)C(C)=O,survivor count,"dose: 25.0 mg/kg/injection, schedule: Q01DX Z (ip), vehicle: carboxymethylcellulose (CMC)",6 of 6
CCOC(CCl)(OCC)OCC,survivor count,"dose: 400.0 mg/kg/injection, schedule: Q04DX002 (ip), vehicle: saline with Tween-80",0 of 3
O=S(=O)(F)c1cc(Cl)ccc1CBr,survivor count,"dose: 100.0 mg/kg/injection, schedule: Q04DX002 (ip), vehicle: saline with Tween-80",3 of 3
CSc1nc(C)cc(SC(=N)N)n1,survivor count,[5],1 of 6
same,survivor count,[6],2 of 6
same,survivor count,[4],0 of 6
COc1cccc(C2CCN(C)C2)c1 (stereo not given),survivor count,"dose: 50.0 mg/kg/injection, schedule: Q01DX009 (ip), vehicle: Klucel (hydroxypropylcellulose) (HPC)",6 of 6
same,survivor count,[7],0 of 6
same,survivor count,[8],0 of 6
same,survivor count,[9],0 of 6
O=CC1CO1 (stereo not given),survivor count,"dose: 100.0 mg/kg/injection, schedule: Q01DX Z (ip), vehicle: steroid suspending solution",6 of 6
O=C1C(=O)N(CNC(c2ccccc2)c2ccccc2)c2ccccc21,survivor count,[10],6 of 6
same,survivor count,[11],6 of 6
same,survivor count,[12],6 of 6
same,survivor count,[2],6 of 6
O=C(CBr)c1cccnc1,survivor count,"dose: 25.0 mg/kg/injection, schedule: Q01DX009 (ip), vehicle: saline",2 of 6
same,survivor count,"dose: 100.0 mg/kg/injection, schedule: Q04DX003 (ip), vehicle: saline",0 of 6
same,survivor count,[6],0 of 6
same,survivor count,[4],0 of 6
COc1cc2c(cc1O)-c1cc3ccc(OC)c(OC)c3c[n+]1CC2,T/C,[13],128 % of control
same,survivor count,[14],0 of 3
Nc1cc(=O)[nH]c(O)c1C(=O)O,survivor count,[1],3 of 6
same,survivor count,[2],6 of 6
NC(=S)N/N=C/c1cccnc1,survivor count,[13],0 of 2
same,survivor count,[14],0 of 3
c1ccc(NNCC[P+](c2ccccc2)(c2ccccc2)c2ccccc2)cc1,survivor count,"dose: 30.0 mg/kg/injection, schedule: Q01DX001 (ip), vehicle: carboxymethylcellulose (CMC)",2 of 6
same,survivor count,"dose: 60.0 mg/kg/injection, schedule: Q01DX001 (ip), vehicle: carboxymethylcellulose (CMC)",0 of 6
same,survivor count,"dose: 75.0 mg/kg/injection, schedule: Q01DX001 (ip), vehicle: carboxymethylcellulose (CMC)",0 of 6
same,survivor count,"dose: 150.0 mg/kg/injection, schedule: Q01DX001 (ip), vehicle: carboxymethylcellulose (CMC)",0 of 6
same,survivor count,"dose: 300.0 mg/kg/injection, schedule: Q01DX001 (ip), vehicle: carboxymethylcellulose (CMC)",0 of 6
O=C1C=CC2C3C=CC(CC3)C12 (stereo not given),survivor count,[13],1 of 3
CN(C)c1nc(=[N+](C)C)ss1,survivor count,[2],6 of 6
C=CCC1(CCC)C(=O)NC(=O)NC1=O,survivor count,[15],4 of 4
same,survivor count,[9],0 of 6
COc1cc(/C=C2\C(O)C3CCN2CC3)cc(OC)c1OC (stereo not given),survivor count,[3],0 of 3
CC12CCCCC1SC(F)(F)C2(F)F (stereo not given),survivor count,"dose: 50.0 mg/kg/injection, schedule: Q01DX009 (ip), vehicle: saline with Tween-80",0 of 6
O=P(N1CCCCCC1)(N1CC1)N1CC1,T/C,"dose: 6.0 mg/kg/injection, schedule: Q01DX Z (ip), vehicle: saline",135 % of control
c1ccc(NC2=NCCCN2)cc1,survivor count,"dose: 100.0 mg/kg/injection, schedule: Q01DX001 (ip), vehicle: saline with Tween-80",0 of 3
same,survivor count,"dose: 200.0 mg/kg/injection, schedule: Q01DX001 (ip), vehicle: saline with Tween-80",0 of 3
same,survivor count,"dose: 400.0 mg/kg/injection, schedule: Q01DX001 (ip), vehicle: saline with Tween-80",0 of 3
Cc1cc(=O)[nH]c(N/N=C/c2cc(Cl)ccc2O)n1,survivor count,[10],6 of 6
same,survivor count,[12],5 of 6
CCOC(=O)CNCC(O)C(Cl)(Cl)Cl (stereo not given),survivor count,"dose: 400.0 mg/kg/injection, schedule: Q01DX009 (ip), vehicle: saline with Tween-80",5 of 6
NC(N)=NCCc1ccc(Cl)cc1,survivor count,"dose: 100.0 mg/kg/injection, schedule: Q01DX001 (ip), vehicle: Klucel (hydroxypropylcellulose) (HPC)",1 of 6
same,survivor count,"dose: 200.0 mg/kg/injection, schedule: Q01DX001 (ip), vehicle: Klucel (hydroxypropylcellulose) (HPC)",0 of 6
CC1=N/C(=N\c2nc3ccccc3[nH]2)NC(=O)CC1,survivor count,[16],2 of 6
CC1(C)CC(N=Cc2ccccc2O)CC(C)(C)N1O.CC1(C)CC(N=Cc2ccccc2O)CC(C)(C)N1O.[Cu],survivor count,[11],2 of 4
same,survivor count,[1],0 of 4
same,survivor count,[2],0 of 4
CN(CCOc1ccccc1O)CCOc1ccccc1O,survivor count,[7],6 of 6
CC(=O)Oc1cc2c(OC(C)=O)c(-c3c(C)cc4c(C(C)C)c(OC(C)=O)c(OC(C)=O)cc4c3OC(C)=O)c(C)cc2c(C(C)C)c1OC(C)=O,survivor count,[1],6 of 6
same,survivor count,[2],6 of 6
CCNCCCOCC,survivor count,[5],5 of 6
same,survivor count,[17],0 of 6
same,survivor count,[4],0 of 6
Cc1cccc(C(C#N)c2ccc(N)cc2)c1 (stereo not given),survivor count,"dose: 400.0 mg/kg/injection, schedule: Q01DX001 (ip), vehicle: saline",1 of 4
C[S+](C)CCCCCC[S+](C)C,survivor count,[6],2 of 6
same,survivor count,[4],0 of 6
O=[N+]([O-])c1ccc(Oc2ccc[n+]([O-])c2)c([N+](=O)[O-])c1,survivor count,[8],0 of 6
same,survivor count,[1],5 of 6
same,survivor count,[2],0 of 6
O=C1OC(=O)c2ccc(SCC(O)CCl)c3cccc1c23 (stereo not given),survivor count,"dose: 200.0 mg/kg/injection, schedule: Q01DX009 (ip), vehicle: other",2 of 6
same,survivor count,"dose: 400.0 mg/kg/injection, schedule: Q01DX009 (ip), vehicle: other",0 of 6
O=C(O)C(Cc1ccccc1)C(=O)O.[NH2-].[NH2-].[Pt+2],survivor count,[9],6 of 10
C1CCCC(=[N+]2CCCC2)CCC1,survivor count,[17],0 of 6
same,survivor count,"dose: 400.0 mg/kg/injection, schedule: Q01DX009 (ip), vehicle: saline",0 of 6
c1cc(-n2nnc3cnccc32)ccn1,survivor count,[6],0 of 6
same,survivor count,[4],4 of 6
Nc1nc(N)c(N)c(Nc2ccc(Cl)cc2)n1,survivor count,[14],0 of 3
CS(=O)(=O)c1nnc(-c2ccc(Cl)c(Cl)c2)s1,survivor count,"dose: 300.0 mg/kg/injection, schedule: Q04DX003 (ip), vehicle: saline",0 of 6
CC/C(=N/N(C)C)c1ccccc1,survivor count,[4],0 of 6
CCCCCC(Br)C(Br)CC(Br)C(Br)CCCCCCCC(=O)O (stereo not given),survivor count,[15],6 of 6
C/C=C/CC1(CC)C(=O)NC(=S)NC1=O,survivor count,[16],1 of 6
N=C(N)/C(N)=N\C1=NCCN1,T/C,"dose: 400.0 mg/kg/injection, schedule: Q01DX009 (ip), vehicle: Klucel (hydroxypropylcellulose) (HPC)",145 % of control

# From PubChem BioAssay AID248 (DTP/NCI, 2004)
